Reference: publication doi:10.1101/2023.06.01.543273
No constants are given. Whether binding was seen depends on the method and setting. Binding seen in cells or lysates may run through a third protein. Some entries that bind do so weakly or less than the wild type.

Target: T1, GvpA-based gas vesicles, shell of the major shell protein GvpA from Anabaena flos-aquae (Anabaena flos-aquae) (UniProt P10397)
T1 sequence: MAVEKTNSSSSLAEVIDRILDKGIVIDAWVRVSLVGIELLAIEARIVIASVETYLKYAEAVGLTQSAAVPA
Assay: co-sedimentation

- binding: binds
B1: GvpC, minor shell protein from A. flos-aquae (protein, UniProt P09413 1-193)
chain: MISLMAKIRQEHQSIAEKVAELSLETREFLSVTTAKRQEQAEKQAQELQAFYKDLQETSQQFLSETAQARIAQAEKQAQELLAFHKELQETSQQFLSATAQARIAQAEKQAQELLAFYQEVRETSQQFLSATAQARIAQAEKQAQELLAFHKELQETSQQFLSATADARTAQAKEQKESLLKFRQDLFVSIFG
